Results: patent US7872038B2, “1-phenyl and 1-pyridylpyrazole derivatives and their use as pesticides” (Merial Limited, priority 2004, dated 2011)
Some of these results come from one statement about several compounds together.

How the values were obtained:
Assay type in all cases: in vivo
[1] = test system: Ctenocephalides felis (cat flea); experiment: Method A: screening method to test systemicity against Ctenocephalides felis (cat flea), artificial dog test with treated bovine blood; conditions: test concentration of 5 ppm or less in bovine blood; adults; assessment at 24 and 48 hours
[2] = test system: Rhipicephalus sanguineus (brown dog tick); experiment: Method C: screening method to test contact activity against Rhipicephalus sanguineus (brown dog tick) larvae, treated filter paper; conditions: test concentration of 100 ppm, larvae (L1), assessed 24 hours vs untreated control
[3] = test system: Ctenocephalides felis (cat flea); experiment: Method B: screening method to test contact activity against Ctenocephalides felis (cat flea), treated filter paper; conditions: test concentration of 1000 ppm, adults, assessed 24 and 48 hours vs untreated control

SMILES | control of Ctenocephalides felis [1] | contact control of Rhipicephalus sanguineus [2] | contact control of Ctenocephalides felis [3]
CNc1cc(C(F)(F)F)cc(Cl)c1-n1nc(C#N)c(SC(F)(F)F)c1N [Compound 1-04, 5-Amino-1-(2-chloro-6-methylamino-4-trifluoromethylphenyl)-3-cyano-4-trifluoromethylthiopyrazole] | at least 90% | at least 70% | at least 70%
CNc1c(SC(F)(F)F)c(C#N)nn1-c1c(Cl)cc(C(F)(F)F)cc1N(C)C [Compound 4-01, 1-(2-chloro-6-dimethylamino-4-trifluoromethylphenyl)-3-cyano-5-methylamino-4-trifluoromethylthiopyrazole] | at least 90% | – | –
CCN(C)c1cc(C(F)(F)F)cc(Cl)c1-n1nc(C#N)c(SC(F)(F)F)c1N [Compound 2-04, 5-amino-3-cyano-1-[2-chloro-6-(ethyl-methylamino)-4-trifluoromethylphenyl]-4-trifluoromethylthiopyrazole] | at least 90% | at least 70% | at least 70%
